Source: patent US20150376216A1, “SUGAR-ANALOG PHOSPHORUS-CONTAINING HETEROCYCLES HAVING AN ANTI-METASTATIC ACTIVITY” (CENTRE NATIONAL DE LA RECHERCHE SCIENTIRIQUE, priority 2013, published 2015)
At least one compound was matched to its structure with a doubt left.

Tested on: SNB75 cells
Test: SNB75 subcutaneous model
Format: in vivo, mice
Conditions: 20 mg/kg i.v. (group D)
Procedure: Nude female mice 4-5 weeks old with an average weight of […], supplied by the R. Janvier breeding center, were used. The mice were kept in a pathogen-free environment and with food and water present ad libitum. The experiments were commenced after one week of acclimatizing the mice to their new environment.
A suspension of 5×10^6 SNB75 cells in 100 μl of sterile PBS (phosphate-buffered saline, provided by Fisher) was injected into each mouse (subcutaneous administration without anesthesia). Once the mice presented tumors with volumes of between […], groups were formed so that each of them contained an equivalent number of large, medium and small tumors. The protocol was conducted with five groups of seven mice. The five groups of mice were treated using one of the five formulations described below:
Group A: Treatment by injection of 100 μl of NaCl (control N° 1).
Group B: Treatment with compound 3.48a at a rate of 10 mg/kg with volumes of 100 to 150 μl of formulation 2 according to the weight of the mice. […]
Each batch was treated by intravenous injection into the caudal vein of 100 to 150 μl of solution (precision syringe and G25X1 needle ultrafine wall, VWR). […] The sizes of the tumors were measured twice a week for a period of four weeks. […]

`Cn1nnc2c(C(N)=O)ncn2c1=O` [temozolomide, reference compound] was tested. Which Tumor regression did it give?
Its Tumor regression is “a very large regression of the tumor”.
